Patent US10329304B2, “Compounds and methods for inhibition of hedgehog signaling and phosphodiesterase” (Vanderbilt University, priority 2014, dated 2019)
At least one structure is not confirmed: it was looked up by name or label, or the drawing left a doubt.

System: Gli2 trafficking
Experiment: Gli2 ciliary localization and nuclear fraction western blot in NIH3T3 cells
Type: cell-based
Settings: SAG 20 nM; Egm 10 μM; FSK 30 μM

For `C=C[C@@]1(C)CC(=O)[C@]2(O)[C@@]3(C)[C@@H](O)CCC(C)(C)[C@@H]3[C@H](O)[C@H](OC(C)=O)[C@@]2(C)O1` [FSK, forskolin, reference compound], the “SAG-induced nuclear accumulation of full-length Gli2” value was “abrogated”.
